These are yes or no findings as the source states them, for the method shown. Binding seen in cells or lysates may run through a third protein. Some binding calls cover weakened binding; strength is not graded here.
Legend:
Assay in all cases: co-IP; proteins from rat hippocampal tissue incubated overnight at 4 °C in RIA buffer (200 mM NaCl, 10 mM EDTA, 10 mM Na2HPO4, 0.5% NP-40) plus 0.1% SDS with primary antibodies; magnetic beads A; Western blot
[1] = molecular target: Rabphilin-3A (rat (endogenous in hippocampal tissue)) (UniProt P47709)
[2] = molecular target: myosin Va (rat (endogenous in hippocampal tissue)) (UniProt Q9QYF3)
[3] = molecular target: GluA1 subunit of AMPA receptors (rat (endogenous in hippocampal tissue)) (UniProt P19490)

The chains behind the UniProt entries cited, without tags or fusion partners. Residues count along the entry.
UniProt P47709: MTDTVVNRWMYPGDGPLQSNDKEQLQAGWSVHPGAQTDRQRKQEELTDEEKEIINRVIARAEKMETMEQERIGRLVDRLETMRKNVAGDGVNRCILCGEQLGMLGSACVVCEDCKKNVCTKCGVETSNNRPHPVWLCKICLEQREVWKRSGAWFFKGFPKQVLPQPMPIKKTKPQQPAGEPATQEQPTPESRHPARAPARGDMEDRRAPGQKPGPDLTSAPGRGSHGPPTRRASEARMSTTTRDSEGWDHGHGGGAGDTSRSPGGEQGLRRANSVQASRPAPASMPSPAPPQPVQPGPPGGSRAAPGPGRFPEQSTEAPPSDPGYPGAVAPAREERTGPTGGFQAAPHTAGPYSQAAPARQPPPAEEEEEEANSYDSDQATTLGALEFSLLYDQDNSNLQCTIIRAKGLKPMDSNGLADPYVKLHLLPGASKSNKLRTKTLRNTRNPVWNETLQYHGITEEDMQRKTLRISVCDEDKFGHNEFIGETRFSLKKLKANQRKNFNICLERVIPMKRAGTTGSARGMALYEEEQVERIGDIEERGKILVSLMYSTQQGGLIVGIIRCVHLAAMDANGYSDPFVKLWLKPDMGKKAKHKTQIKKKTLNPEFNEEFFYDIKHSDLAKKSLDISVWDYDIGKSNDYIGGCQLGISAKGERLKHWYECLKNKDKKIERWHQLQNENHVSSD
UniProt Q9QYF3: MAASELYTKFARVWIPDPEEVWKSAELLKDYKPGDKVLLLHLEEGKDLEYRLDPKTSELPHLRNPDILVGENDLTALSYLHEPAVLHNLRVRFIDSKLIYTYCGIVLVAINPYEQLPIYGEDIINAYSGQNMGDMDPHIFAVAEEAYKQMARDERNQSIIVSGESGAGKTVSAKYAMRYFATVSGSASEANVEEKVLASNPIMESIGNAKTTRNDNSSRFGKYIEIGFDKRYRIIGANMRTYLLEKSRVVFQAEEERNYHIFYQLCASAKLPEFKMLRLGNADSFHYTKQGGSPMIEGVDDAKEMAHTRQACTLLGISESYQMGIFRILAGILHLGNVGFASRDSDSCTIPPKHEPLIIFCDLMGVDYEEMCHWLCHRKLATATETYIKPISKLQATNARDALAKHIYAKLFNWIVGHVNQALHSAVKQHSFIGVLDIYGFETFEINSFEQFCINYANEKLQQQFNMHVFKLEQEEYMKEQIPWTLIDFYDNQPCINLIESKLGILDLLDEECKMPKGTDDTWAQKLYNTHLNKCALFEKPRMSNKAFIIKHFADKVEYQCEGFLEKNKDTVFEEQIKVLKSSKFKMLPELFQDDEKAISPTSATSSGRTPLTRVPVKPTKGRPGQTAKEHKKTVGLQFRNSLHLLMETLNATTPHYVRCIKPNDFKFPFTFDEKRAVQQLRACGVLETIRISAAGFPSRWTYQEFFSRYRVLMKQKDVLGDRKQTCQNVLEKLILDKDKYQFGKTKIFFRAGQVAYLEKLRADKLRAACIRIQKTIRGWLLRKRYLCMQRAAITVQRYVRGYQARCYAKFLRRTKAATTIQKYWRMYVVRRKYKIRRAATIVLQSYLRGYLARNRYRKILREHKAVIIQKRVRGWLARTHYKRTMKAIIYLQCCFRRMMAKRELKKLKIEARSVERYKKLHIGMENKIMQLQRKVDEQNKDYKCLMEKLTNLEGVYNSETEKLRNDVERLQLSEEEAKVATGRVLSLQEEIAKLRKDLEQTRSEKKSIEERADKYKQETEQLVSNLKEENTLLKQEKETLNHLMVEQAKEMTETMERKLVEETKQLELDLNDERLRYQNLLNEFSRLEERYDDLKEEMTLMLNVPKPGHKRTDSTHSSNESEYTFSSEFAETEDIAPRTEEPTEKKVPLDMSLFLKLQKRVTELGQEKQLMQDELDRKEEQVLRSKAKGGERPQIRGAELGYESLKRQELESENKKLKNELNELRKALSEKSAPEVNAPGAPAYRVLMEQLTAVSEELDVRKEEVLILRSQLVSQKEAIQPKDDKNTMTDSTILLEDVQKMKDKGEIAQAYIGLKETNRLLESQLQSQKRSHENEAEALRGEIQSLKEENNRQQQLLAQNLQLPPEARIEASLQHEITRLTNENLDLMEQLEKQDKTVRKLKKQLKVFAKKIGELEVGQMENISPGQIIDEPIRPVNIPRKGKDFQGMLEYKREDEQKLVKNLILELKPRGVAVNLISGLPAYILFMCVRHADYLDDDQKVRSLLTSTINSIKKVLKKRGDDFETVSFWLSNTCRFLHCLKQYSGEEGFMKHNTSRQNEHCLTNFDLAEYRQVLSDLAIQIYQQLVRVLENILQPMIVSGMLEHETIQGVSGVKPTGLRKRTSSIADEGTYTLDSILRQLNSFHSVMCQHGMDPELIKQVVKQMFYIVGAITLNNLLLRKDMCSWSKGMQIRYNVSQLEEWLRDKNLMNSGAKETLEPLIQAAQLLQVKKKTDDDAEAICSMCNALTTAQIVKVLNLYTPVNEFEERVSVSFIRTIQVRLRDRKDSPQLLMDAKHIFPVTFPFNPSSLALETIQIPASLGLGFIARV
UniProt P19490, residues 19-907: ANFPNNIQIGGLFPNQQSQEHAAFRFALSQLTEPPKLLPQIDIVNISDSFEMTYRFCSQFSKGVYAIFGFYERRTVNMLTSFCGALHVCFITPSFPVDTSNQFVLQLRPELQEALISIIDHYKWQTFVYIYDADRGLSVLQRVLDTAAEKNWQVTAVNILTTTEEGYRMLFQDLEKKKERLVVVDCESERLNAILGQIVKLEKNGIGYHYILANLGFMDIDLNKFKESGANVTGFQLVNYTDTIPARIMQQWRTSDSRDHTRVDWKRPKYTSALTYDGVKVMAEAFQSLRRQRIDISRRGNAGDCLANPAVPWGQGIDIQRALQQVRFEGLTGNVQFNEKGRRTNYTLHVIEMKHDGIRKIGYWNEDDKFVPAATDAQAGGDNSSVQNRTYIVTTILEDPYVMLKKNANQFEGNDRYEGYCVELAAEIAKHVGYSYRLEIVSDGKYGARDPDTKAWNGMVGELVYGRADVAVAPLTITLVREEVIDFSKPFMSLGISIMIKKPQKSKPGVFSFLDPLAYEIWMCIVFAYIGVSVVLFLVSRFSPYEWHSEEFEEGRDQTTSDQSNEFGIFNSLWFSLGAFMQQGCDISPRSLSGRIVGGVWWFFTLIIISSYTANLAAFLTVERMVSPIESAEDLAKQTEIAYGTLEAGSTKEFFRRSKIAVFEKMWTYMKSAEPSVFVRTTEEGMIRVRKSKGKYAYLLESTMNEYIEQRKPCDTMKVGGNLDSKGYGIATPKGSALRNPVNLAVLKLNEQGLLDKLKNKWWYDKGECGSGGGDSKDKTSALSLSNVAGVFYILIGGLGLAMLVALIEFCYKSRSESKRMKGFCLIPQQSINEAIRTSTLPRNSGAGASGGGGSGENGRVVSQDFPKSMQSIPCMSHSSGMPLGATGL

Row | binding [1] | binding [2] | binding [3] | Substance
1 | binds | binds | – | GluA1 subunit of AMPA receptors (from UniProt P19490 19-907)
2 | binds | – | binds | myosin Va (from UniProt Q9QYF3 1-1828)
3 | – | binds | binds | Rabphilin-3A (from UniProt P47709 1-684)

— article PMC9139176
